From patent publication US8053435B2, “Naphthalenyloxypropenyl derivatives having inhibitory activity against histone deacetylase and pharmaceutical composition comprising the same” (Korea Research Institute of Chemical Technology, priority 2006, dated 2011) come the findings set out here.

This assay concerns colon cancer cells HCT116. The assay can be described thus: Inhibitory activity against proliferation of cancer cells, SRB (Sulforhodamine B) analysis. It counts as cell-based. To be noted: Homo sapiens, HCT-116, Table 2, 48 hrs incubation with compound, read-out: Inhibitory conc. against cancer cell growth (EC50 μM) HCT116. The source says:
Inhibitory activities of naphthalenyloxypropenyl derivatives synthesized in Examples 1-1 to 1-23 against proliferation of cancer cells were examined by SRB (Sulforhodamine B) analysis using cervix adenocarcinoma Hela (Korean Cell Line Bank, KCLB 10002) and colon cancer cells HCT116 (Korean Cell Line Bank, KCLB 10247) as follows: […]
Inhibitory activities of naphthalenyloxypropenyl derivatives synthesized in Examples 2-1 to 2-30 against proliferation of cancer cells were examined by SRB (Sulforhodamine B) analysis using cervix adenocarcinoma Hela (Korean Cell. Line Bank, KCLB 10002) and colon cancer cells HCT116 (Korean Cell Line Bank, KCLB 10247) as follows:
Cancer cells were inoculated into a 96-well microplate at a concentration of 1×10^3˜3×10^3 cells/well and incubated under the condition of 37° C., 5% CO2 for 24 hrs. After the incubation was completed, 0.2, 1, 5, 25, or 100 μM of each of the compounds of Examples was added to the plate, and then the reactant was incubated for 48 hrs. After the substrate was stained with SRB, the anti-cancer activity was determined by comparing the amount of protein in the cells treated with the compound of Examples with that of protein in untreated cells.
Specifically, after the incubation was completed, the culture medium was removed from each well, and the cells were washed 3 times with PBS (pH 7.4). […]

`O=C(CCCCCCC(=O)Nc1ccccc1)NO` [SAHA, suberoylanilide hydroxamic acid, reference compound]: the EC50 amounted to 1.6 µM.
